Values joined by “and” are separate entries in the source; they are usually repeats but may differ in a detail not shown here. Equal values may be shown once. Whole data set: some 1,600 compounds, median “Hit score” near 0.13, cut for the highest 2% near 0.46. The list shows a part of the results.

This assay relates to SARS-CoV-2. In words: Antiviral activity against SARS-CoV-2 (USA-WA1/2020 strain) measured by imaging in HRCE cells at MOI 0.4 after 96 hrs (reported as hit score from 0-1 for on-disease vs off-disease activity: scores >0.6 considered hits). The class given is functional, Homo sapiens.
For `NC(=O)c1nc(F)cnc1O`, the Hit score came out at 0.1191.

In turn, `CO[C@@]1(NC(=O)CSC[C@@H](N)C(=O)O)C(=O)N2C(C(=O)O)=C(CSc3nnnn3C)CS[C@@H]21` [CEFMINOX] had a Hit score of 0.1316.

In turn, `N[C@@H](Cc1c[nH]c2ccc(O)cc12)C(=O)O` [OXITRIPTAN] registered a Hit score of 0.1749.

For the compound `CSCC1CN(/N=C/c2ccc([N+](=O)[O-])o2)C(=O)O1` (stereo not drawn), the Hit score was -0.03043.

`CNS(=O)(=O)CCc1ccc2[nH]cc(C3CCN(C)CC3)c2c1`: the Hit score is 0.2212.

`CC(=O)Oc1ccccc1C(=O)O` [ASPIRIN] came in with a Hit score of 0.102.

The compound `CO[C@H]1C[C@@H]2CC[C@@H](C)[C@@](O)(O2)C(=O)C(=O)N2CCCC[C@H]2C(=O)O[C@H]([C@H](C)C[C@@H]2CC[C@H](n3cnnn3)[C@H](OC)C2)CC(=O)[C@H](C)/C=C(\C)[C@@H](O)[C@@H](OC)C(=O)[C@H](C)C[C@H](C)/C=C/C=C/C=C/1C` [ZOTAROLIMUS] had a Hit score of 0.6315.

For `CC(CCc1ccccc1)NC(C)C(O)c1ccc(O)cc1` (stereo not drawn) [NYLIDRIN], the Hit score was -0.0447.

For `C#Cc1cccc(Nc2ncnc3cc4c(cc23)OCCOCCOCCO4)c1` [ICOTINIB], the Hit score is 0.1043.

In turn, `C=CC(=O)Nc1cc(Nc2nccc(-c3cn(C)c4ccccc34)n2)c(OC)cc1N(C)CCN(C)C` [OSIMERTINIB] registered a Hit score of 0.3216.

Turning to `O=[N+]([O-])c1cncn1CCN1CCOCC1` [NIMORAZOLE], the Hit score is recorded as 0.1444.

Consider `C[C@@H](c1nc(-c2ccc(C#N)cc2)cs1)[C@](O)(Cn1cncn1)c1cc(F)ccc1F` [ISAVUCONAZOLE], for which the Hit score worked out at 0.1201.

`COc1ccc(CN2CCNCC2)c(OC)c1OC.Cl.Cl` [TRIMETAZIDINE DIHYDROCHLORIDE] returned a Hit score of 0.06907.

Compound `C[C@]12CC[C@@H]3c4ccc(OC(=O)N(CCCl)CCCl)cc4CC[C@H]3[C@@H]1CC[C@@H]2O` [ESTRAMUSTINE] returned a Hit score of 0.23.

Regarding `COc1cc(C2Oc3cc([C@H]4Oc5cc(O)cc(O)c5C(=O)[C@@H]4O)ccc3OC2CO)ccc1O` (stereo partly drawn) [SILIBININ], the Hit score turned out to be 0.1996.

In the case of `CC(=O)O[C@]1(C(C)=O)CC[C@H]2[C@@H]3C[C@H](C)C4=CC(=O)CC[C@]4(C)[C@H]3CC[C@@]21C` [MEDROXYPROGESTERONE ACETATE], the Hit score came out at 0.2613.

Compound `CO[C@@H]1[C@H](N(C)C(=O)c2ccccc2)C[C@H]2O[C@]1(C)n1c3ccccc3c3c4c(c5c6ccccc6n2c5c31)C(=O)NC4` [MIDOSTAURIN] showed a Hit score of -0.02037.

In the case of `CC(C)N(CCC(C(N)=O)(c1ccccc1)c1ccccn1)C(C)C` (stereo not drawn) [DISOPYRAMIDE], the Hit score came out at 0.1987.

Regarding `CC(=O)N[C@@H](CS)C(=O)O` [ACETYLCYSTEINE], the Hit score is 0.1287 and 0.2321.

`N=C(N)NCc1cccc(I)c1` [IOBENGUANE]: the Hit score is -0.003502.

Consider `NC(=O)OCC(COC(N)=O)c1ccccc1` [FELBAMATE], for which the Hit score is 0.06665.

The compound `Cc1ccc2c(c1)[C@]13CCCC[C@@H]1[C@H](C2)N(C)CC3` [DIMEMORFAN] displayed a Hit score of 0.08461.

`N[C@@H](Cc1ccc(N(CCCl)CCCl)cc1)C(=O)O` showed a Hit score of 0.13.

`COC(=O)N[C@H](C(=O)N[C@@H](Cc1ccccc1)[C@@H](O)CN(Cc1ccc(-c2ccccn2)cc1)NC(=O)[C@@H](NC(=O)OC)C(C)(C)C)C(C)(C)C` [ATAZANAVIR] showed a Hit score of 0.1414.

In turn, `CNC[C@H](O)[C@@H](O)[C@H](O)[C@H](O)CO` [MEGLUMINE] had a Hit score of 0.1269.

In turn, `Cn1cc(C(=O)[C@@H]2CCc3[nH]cnc3C2)c2ccccc21` [RAMOSETRON] registered a Hit score of 0.1855.

On to `CCOC(=O)[C@H](C)C[C@@H](Cc1ccc(-c2ccccc2)cc1)NC(=O)CCC(=O)O` [SACUBITRIL], for which the Hit score stood at 0.07267.

`CCOC(=O)[C@H](CCc1ccccc1)N[C@@H](C)C(=O)N(CC(=O)O)C1Cc2ccccc2C1` gave a Hit score of 0.293.

`C1CCN2C[C@@H]3C[C@@H](CN4CCCC[C@@H]34)[C@H]2C1.O.O.O.O.O.O=S(=O)(O)O` [SPARTEINE SULFATE]: the Hit score stood at 0.06144.

Compound `C[C@H](Cn1cnc2c(N)ncnc21)OCP(=O)(O)O` [TENOFOVIR ANHYDROUS] gave a Hit score of 0.1182.

As to `CC(C)(C)c1ccc(C(=O)CCCN2CCC(OC(c3ccccc3)c3ccccc3)CC2)cc1` [EBASTINE], the Hit score amounted to 0.1539.

In turn, `CC[C@H](NC(=O)c1c(O)c(-c2ccccc2)nc2ccccc12)c1ccccc1` [TALNETANT] had a Hit score of 0.007184.

In the case of `COc1cccc(Nc2c(C(N)=O)cnc3c(C)cc(S(=O)(=O)c4cccc(C(=O)N(C)C)c4)cc23)c1` [GSK-256066], the Hit score was -0.006373.

`Nc1c(CC(=O)O)cccc1C(=O)c1ccc(Br)cc1` [BROMFENAC]: the Hit score is 0.2148.

The compound `C=CCNc1nc(NCC=C)nc(N2CCN(C(c3ccc(F)cc3)c3ccc(F)cc3)CC2)n1` [ALMITRINE] gave a Hit score of 0.7206.

`CN(C/C=C/c1ccccc1)Cc1cccc2ccccc12` [NAFTIFINE] returned a Hit score of 0.03695.

`CC(=O)CCCCn1c(=O)c2c(ncn2C)n(C)c1=O` [PENTOXIFYLLINE] came in with a Hit score of 0.2031.

Compound `N[C@@H](Cc1cc(CP(=O)(O)O)cc(-c2ccccc2Cl)c1)C(=O)O` yielded a Hit score of 0.1456.

For `CC(C)(C)c1nc(-c2cccc(NS(=O)(=O)c3c(F)cccc3F)c2F)c(-c2ccnc(N)n2)s1` [DABRAFENIB], the Hit score was -0.274.

Compound `CCN1CCCC(OC(=O)C(c2ccccc2)c2ccccc2)C1` (stereo not drawn) [PIPERIDOLATE] came in with a Hit score of 0.179.

`Nc1ccc(C(=O)O)cc1` [AMINOBENZOIC ACID] gave a Hit score of 0.2847.

In the case of `CCCCCNC(=N)N/N=C/c1c[nH]c2ccc(OC)cc12` [TEGASEROD], the Hit score is reported as -0.04384.

Take `NS(=O)(=O)c1cc(Cl)c(Cl)c(S(N)(=O)=O)c1` [DICHLORPHENAMIDE]: the Hit score is 0.1613.

`COc1c(C)c2c(c(O)c1C/C=C(\C)CCC(=O)O)C(=O)OC2` [MYCOPHENOLIC ACID]: the Hit score is 0.03235.

The compound `O=C(Oc1ccccc1C(=O)O)c1ccccc1O` [SALSALATE] showed a Hit score of 0.2499.

As to `O=C(NCCN1CCOCC1)c1ccc(Cl)cc1` [MOCLOBEMIDE], the Hit score was 0.1695.

Compound `C[C@H](Cc1cc2c(c(C(N)=O)c1)N(CCCO)CC2)NCCOc1ccccc1OCC(F)(F)F` [SILODOSIN] displayed a Hit score of 0.3783.

In the case of `NCCNCCNCCN` [TRIENTINE], the Hit score came out at 0.1736.

Compound `CC[C@H]1OC(=O)C[C@@H](O)[C@H](C)[C@@H](O[C@@H]2O[C@H](C)[C@@H](O)[C@H](N(C)C)[C@H]2O)[C@@H](CCN2C[C@H](C)C[C@H](C)C2)C[C@@H](C)C(=O)/C=C/C(C)=C/[C@@H]1CO[C@@H]1O[C@H](C)[C@@H](O)[C@@H](OC)[C@H]1OC` [TILMICOSIN] returned a Hit score of 0.01322.

For the compound `OC(c1cc(C(F)(F)F)nc2c(C(F)(F)F)cccc12)C1CCCCN1` (stereo not drawn) [MEFLOQUINE], the Hit score was -0.07632.

In turn, `Cc1cc(C)cc(OCC2CNC(=O)O2)c1` (stereo not drawn) [METAXALONE] returned a Hit score of 0.2292.

In turn, `COc1ccc(NC(=O)c2ccc(C(=N)N(C)C)cc2)c(C(=O)Nc2ccc(Cl)cn2)c1` [BETRIXABAN] showed a Hit score of 0.004778.

In turn, `CC(=O)[C@@]12O[C@](C)(c3ccccc3)O[C@@H]1C[C@H]1[C@@H]3CCC4=CC(=O)CC[C@]4(C)[C@H]3CC[C@@]12C` [ALGESTONE ACETOPHENIDE] had a Hit score of 0.1273.

`CCN(CC)C(=O)/C(C#N)=C/c1cc(O)c(O)c([N+](=O)[O-])c1` [ENTACAPONE] registered a Hit score of 0.1988.

The compound `Nc1nc(N)nc(NC2CC2)n1` [CYROMAZINE] came in with a Hit score of 0.0904.

Take `C[C@]12CCC(=O)C=C1CC[C@@H]1[C@@H]2C(=O)C[C@@]2(C)[C@H]1CC[C@]2(O)C(=O)CO` [CORTISONE]: the Hit score is recorded as 0.1539.

`O=C1[C@@H]2[C@H]3CC[C@H](C3)[C@@H]2C(=O)N1C[C@@H]1CCCC[C@H]1CN1CCN(c2nsc3ccccc23)CC1` [LURASIDONE] came in with a Hit score of 0.4322.

Compound `CCCN1C[C@H](CSC)C[C@@H]2c3cccc4[nH]cc(c34)C[C@H]21` [PERGOLIDE] came in with a Hit score of 0.1009.

With `CCOc1cc(CC(=O)N[C@@H](CC(C)C)c2ccccc2N2CCCCC2)ccc1C(=O)O` [REPAGLINIDE], the Hit score turned out to be 0.06595.

On to `CCOC(=O)C1=C(C)NC(C)=C(C(=O)OCC)C1c1ccccc1/C=C/C(=O)OC(C)(C)C` [LACIDIPINE], for which the Hit score was determined as 0.0561.

The compound `CN1[C@@H]2CC[C@H]1C[C@@H](OC(=O)C(CO)c1ccccc1)C2` (stereo partly drawn) [ATROPINE] yielded a Hit score of 0.04488.

As for `CC(C)NCC(O)c1ccc(O)c(O)c1` (stereo not drawn) [ISOPROTERENOL], the Hit score is 0.1056.

On to `COc1ccc2[nH]c([S@@+]([O-])Cc3ncc(C)c(OC)c3C)nc2c1` [ESOMEPRAZOLE], for which the Hit score came out at 0.09016.

Compound `Nc1nc2c(ncn2COCCO)c(=O)[nH]1` [ACYCLOVIR] showed a Hit score of 0.1075.

On to `CC(C)(CCCCCC(O)CCCCCC(C)(C)C(=O)O)C(=O)O` [BEMPEDOIC ACID], for which the Hit score was 0.1415.

On to `CCN(CCO)CCCC(C)Nc1ccnc2cc(Cl)ccc12.O=S(=O)(O)O` (stereo not drawn) [HYDROXYCHLOROQUINE SULFATE], for which the Hit score is reported as 0.1708.

As for `C=C[C@H]1CN2CC[C@H]1C[C@H]2[C@H](O)c1ccnc2ccc(OC)cc12` [QUININE], the Hit score amounted to 0.1408.

The compound `N[C@@H](C(=O)N[C@@H]1C(=O)N2C(C(=O)O)=C(Cl)CS[C@H]12)c1ccccc1` [CEFACLOR ANHYDROUS] had a Hit score of 0.3978.
